For assay [1], the target named is Parkin (E3 ligase), endogenous in THLE2 cells (human (endogenous in THLE2)) (UniProt O60260). Briefly: co-IP; endogenous proteins in lysates of MPHs or THLE2 cells (with/without H/R, with/without lactate); IP with anti-PCK2 or anti-Parkin antibody, Western blot; IP lysis buffer 20 mM Tris-HCl pH 7.5, 0.5% NP-40, 250 mM NaCl; protein A/G-Sepharose, 4 °C.
The target in assay [2] is T1, mitochondrial phosphoenolpyruvate carboxykinase 2 (PCK2), endogenous in THLE2 cells (human (endogenous in THLE2)) (UniProt Q16822).
T1 sequence: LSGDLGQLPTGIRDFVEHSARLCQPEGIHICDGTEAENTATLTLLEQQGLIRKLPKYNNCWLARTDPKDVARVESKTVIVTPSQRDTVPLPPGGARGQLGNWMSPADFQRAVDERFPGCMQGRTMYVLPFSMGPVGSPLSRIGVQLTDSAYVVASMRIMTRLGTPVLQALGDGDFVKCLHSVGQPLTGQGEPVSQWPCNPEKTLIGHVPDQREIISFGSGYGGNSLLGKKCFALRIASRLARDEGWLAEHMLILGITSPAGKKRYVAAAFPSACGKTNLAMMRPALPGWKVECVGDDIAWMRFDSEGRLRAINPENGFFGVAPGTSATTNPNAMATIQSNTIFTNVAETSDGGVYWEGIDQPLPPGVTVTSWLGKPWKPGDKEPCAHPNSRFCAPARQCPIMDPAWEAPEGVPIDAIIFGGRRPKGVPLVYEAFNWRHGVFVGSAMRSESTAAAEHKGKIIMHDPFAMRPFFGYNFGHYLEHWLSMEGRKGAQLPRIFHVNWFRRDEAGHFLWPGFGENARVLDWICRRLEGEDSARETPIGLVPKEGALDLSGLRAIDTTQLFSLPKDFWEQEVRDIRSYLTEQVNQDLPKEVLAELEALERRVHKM
The assay is described as above.

Sequences of proteins named here, by UniProt entry; tags and fusion partners are left off. Residues count along the entry.
UniProt O60260: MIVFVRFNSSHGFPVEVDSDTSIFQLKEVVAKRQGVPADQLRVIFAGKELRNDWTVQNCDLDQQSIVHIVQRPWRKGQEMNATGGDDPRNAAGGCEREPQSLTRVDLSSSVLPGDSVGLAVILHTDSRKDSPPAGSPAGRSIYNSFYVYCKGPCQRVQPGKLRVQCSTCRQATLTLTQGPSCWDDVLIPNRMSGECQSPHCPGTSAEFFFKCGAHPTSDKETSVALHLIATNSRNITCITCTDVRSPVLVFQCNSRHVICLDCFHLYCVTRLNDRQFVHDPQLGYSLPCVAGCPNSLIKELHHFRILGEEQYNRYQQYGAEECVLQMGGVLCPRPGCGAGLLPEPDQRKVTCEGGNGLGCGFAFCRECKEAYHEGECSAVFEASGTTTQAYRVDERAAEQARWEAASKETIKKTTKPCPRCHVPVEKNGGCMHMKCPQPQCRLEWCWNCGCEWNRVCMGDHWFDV
UniProt Q9NWU1, residues 28-459: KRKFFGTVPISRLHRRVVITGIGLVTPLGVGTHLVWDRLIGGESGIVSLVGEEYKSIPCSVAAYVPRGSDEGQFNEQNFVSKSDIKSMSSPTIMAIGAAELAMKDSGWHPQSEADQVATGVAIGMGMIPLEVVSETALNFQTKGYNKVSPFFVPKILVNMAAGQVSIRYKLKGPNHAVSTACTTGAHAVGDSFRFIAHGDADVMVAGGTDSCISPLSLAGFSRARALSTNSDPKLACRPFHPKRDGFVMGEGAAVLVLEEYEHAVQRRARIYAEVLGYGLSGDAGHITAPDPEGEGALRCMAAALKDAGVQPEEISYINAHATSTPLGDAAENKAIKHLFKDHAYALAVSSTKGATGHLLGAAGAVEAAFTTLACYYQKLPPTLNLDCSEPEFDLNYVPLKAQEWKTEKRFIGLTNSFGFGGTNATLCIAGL

The target of assay [3] is Parkin (E3 ligase), endogenous in THLE2 cells (human (endogenous in THLE2)) (UniProt O60260). The assay can be described thus: co-IP; CoIP of Parkin and OXSM from THLE2 cells transfected with different concentrations of Flag-PCK2, Western blot. Background: Immunoblotting shows a protein as a band on a membrane.
For assay [4], the target named is T2, Flag-PCK2 (human wild-type PCK2 in the GV141-Flag vector) (human) (UniProt Q16822).
T2 sequence: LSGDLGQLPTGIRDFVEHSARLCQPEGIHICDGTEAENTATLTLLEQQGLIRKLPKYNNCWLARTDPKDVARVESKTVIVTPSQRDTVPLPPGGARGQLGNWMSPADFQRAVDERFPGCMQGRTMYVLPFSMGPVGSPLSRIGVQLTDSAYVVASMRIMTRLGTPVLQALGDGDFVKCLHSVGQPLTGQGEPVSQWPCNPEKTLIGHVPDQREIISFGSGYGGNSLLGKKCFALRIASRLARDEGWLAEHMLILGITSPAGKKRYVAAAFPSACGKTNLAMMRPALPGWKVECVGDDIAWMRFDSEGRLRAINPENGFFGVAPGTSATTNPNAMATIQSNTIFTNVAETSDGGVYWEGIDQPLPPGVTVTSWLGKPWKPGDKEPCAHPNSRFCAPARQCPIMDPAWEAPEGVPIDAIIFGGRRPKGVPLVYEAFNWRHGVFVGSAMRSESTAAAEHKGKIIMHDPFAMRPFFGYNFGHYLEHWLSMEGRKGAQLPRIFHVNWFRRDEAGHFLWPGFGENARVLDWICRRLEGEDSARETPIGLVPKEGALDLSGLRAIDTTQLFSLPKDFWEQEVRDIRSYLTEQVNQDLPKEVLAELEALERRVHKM
The assay can be described thus: co-IP; tagged proteins co-expressed in HEK293T cells; IP with anti-Flag or anti-MYC antibody, Western blot; IP lysis buffer 20 mM Tris-HCl pH 7.5, 0.5% NP-40, 250 mM NaCl.

A further assay deals with T3, GST-fused PCK2 (human) (UniProt Q16822).
T3 sequence: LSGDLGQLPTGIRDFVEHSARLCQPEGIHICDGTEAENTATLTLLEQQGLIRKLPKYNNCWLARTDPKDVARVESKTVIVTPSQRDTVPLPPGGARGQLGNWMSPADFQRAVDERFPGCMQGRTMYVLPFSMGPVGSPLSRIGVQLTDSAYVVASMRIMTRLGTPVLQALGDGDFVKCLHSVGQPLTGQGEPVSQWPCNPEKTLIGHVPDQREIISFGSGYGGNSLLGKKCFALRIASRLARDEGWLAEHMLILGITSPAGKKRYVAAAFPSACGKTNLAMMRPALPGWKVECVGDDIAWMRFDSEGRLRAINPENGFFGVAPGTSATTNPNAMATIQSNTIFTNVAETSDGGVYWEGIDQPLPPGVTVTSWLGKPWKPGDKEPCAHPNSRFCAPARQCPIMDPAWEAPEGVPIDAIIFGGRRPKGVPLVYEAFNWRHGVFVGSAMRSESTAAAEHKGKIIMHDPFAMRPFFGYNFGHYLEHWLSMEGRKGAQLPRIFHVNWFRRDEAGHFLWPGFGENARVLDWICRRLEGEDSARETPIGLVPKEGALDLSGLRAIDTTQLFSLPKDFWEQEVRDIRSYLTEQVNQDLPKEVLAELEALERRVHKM
The assay can be described thus: pull-down; GST-PCK2 or GST on glutathione-Sepharose beads incubated with total lysates of cells expressing MYC-OXSM (THLE2, 2 hours, by the legend; HEK293T extracts, overnight at 4 °C, by the methods); 25 mM Tris-HCl pH 7.2, 150 mM NaCl; Western blot with anti-MYC or anti-GST; only the target purified.

Assay [5] addresses 3-oxoacyl-ACP synthase (OXSM), endogenous in THLE2 cells (human (endogenous in THLE2)) (UniProt Q9NWU1). The assay can be described thus: co-IP; CoIP of Parkin and OXSM from THLE2 cells transfected with different concentrations of Flag-PCK2, Western blot.
Assay [6] has as its target T4, mitochondrial phosphoenolpyruvate carboxykinase 2 (PCK2), endogenous in mouse primary hepatocytes (mouse (endogenous in MPHs)) (UniProt Q8BH04).
T4 sequence: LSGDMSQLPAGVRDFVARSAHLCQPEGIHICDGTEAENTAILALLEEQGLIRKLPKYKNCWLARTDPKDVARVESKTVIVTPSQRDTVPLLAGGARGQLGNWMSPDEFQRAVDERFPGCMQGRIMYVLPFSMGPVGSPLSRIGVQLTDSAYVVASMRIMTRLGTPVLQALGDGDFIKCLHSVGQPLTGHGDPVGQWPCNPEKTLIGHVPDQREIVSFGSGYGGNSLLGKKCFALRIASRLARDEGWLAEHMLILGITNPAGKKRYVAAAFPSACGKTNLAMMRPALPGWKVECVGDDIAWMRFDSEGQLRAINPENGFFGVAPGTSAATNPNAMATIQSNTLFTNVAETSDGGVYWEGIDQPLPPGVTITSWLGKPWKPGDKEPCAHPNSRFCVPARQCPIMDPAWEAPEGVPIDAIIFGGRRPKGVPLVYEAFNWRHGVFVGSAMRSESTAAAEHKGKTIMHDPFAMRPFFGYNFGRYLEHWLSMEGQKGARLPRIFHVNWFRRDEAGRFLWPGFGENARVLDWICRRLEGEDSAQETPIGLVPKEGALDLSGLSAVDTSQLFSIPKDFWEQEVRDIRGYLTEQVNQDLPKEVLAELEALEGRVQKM
The assay can be described thus: co-IP; endogenous proteins in lysates of MPHs or THLE2 cells (with/without H/R, with/without lactate); IP with anti-PCK2 or anti-Parkin antibody, Western blot; IP lysis buffer 20 mM Tris-HCl pH 7.5, 0.5% NP-40, 250 mM NaCl; protein A/G-Sepharose, 4 °C.

No constants are given. Whether binding was seen depends on the method and setting. Binding seen in cells or lysates may run through a third protein. Some binding calls cover weakened binding; strength is not graded here. For some of these results: Tags and fused reporters may be left off the sequences shown.

Take “3-oxoacyl-ACP synthase (OXSM), endogenous in THLE2 cells (from UniProt Q9NWU1 28-459) (enzyme)”: the binding entry in assay [1], in assay [2] and in assay [3] was “binds” throughout.
For “MYC-OXSM (human wild-type OXSM in the GV141-Myc vector) (from UniProt Q9NWU1 28-459) (enzyme)”, the binding entry (in assay [4]; with GST-fused PCK2 (human)) was “binds” each time.

B1: Flag-PCK2 (human wild-type PCK2 in the GV141-Flag vector) (enzyme, UniProt Q16822 33-640)
chain: LSGDLGQLPTGIRDFVEHSARLCQPEGIHICDGTEAENTATLTLLEQQGLIRKLPKYNNCWLARTDPKDVARVESKTVIVTPSQRDTVPLPPGGARGQLGNWMSPADFQRAVDERFPGCMQGRTMYVLPFSMGPVGSPLSRIGVQLTDSAYVVASMRIMTRLGTPVLQALGDGDFVKCLHSVGQPLTGQGEPVSQWPCNPEKTLIGHVPDQREIISFGSGYGGNSLLGKKCFALRIASRLARDEGWLAEHMLILGITSPAGKKRYVAAAFPSACGKTNLAMMRPALPGWKVECVGDDIAWMRFDSEGRLRAINPENGFFGVAPGTSATTNPNAMATIQSNTIFTNVAETSDGGVYWEGIDQPLPPGVTVTSWLGKPWKPGDKEPCAHPNSRFCAPARQCPIMDPAWEAPEGVPIDAIIFGGRRPKGVPLVYEAFNWRHGVFVGSAMRSESTAAAEHKGKIIMHDPFAMRPFFGYNFGHYLEHWLSMEGRKGAQLPRIFHVNWFRRDEAGHFLWPGFGENARVLDWICRRLEGEDSARETPIGLVPKEGALDLSGLRAIDTTQLFSLPKDFWEQEVRDIRSYLTEQVNQDLPKEVLAELEALERRVHKM
B1: the binding entry in assay [5] is given as “binds”.

B2: lysine acetyltransferase 8 (KAT8), endogenous in mouse primary hepatocytes (enzyme, UniProt Q9D1P2 1-458)
chain: MAAQGATAAVAATTSGTVGEGEPGPGENAAVEGPARSPGRVSPPTPARGEPEVTVEIGETYLCRRPDSTWHSAEVIQSRVNDQEGREEFYVHYVGFNRRLDEWVDKNRLALTKTVKDAVQKNSEKYLSELAEQPERKITRNQKRKHDEINHVQKTYAEMDPTTAALEKEHEAITKVKYVDKIHIGNYEIDAWYFSPFPEDYGKQPKLWLCEYCLKYMKFEKSYRFHLGQCQWRQPPGKEIYRKSNISVYEVDGKDHKIYCQNLCLLAKLFLDHKTLYFDVEPFVFYILTEVDRQGAHIVGYFSKEKESPDGNNVACILTLPPYQRRGYGKFLIAFSYELSKLESTVGSPEKPLSDLGKLSYRSYWSWVLLEILRDFRGTLSIKDLSQMTSITQNDIISTLQSLNMVKYWKGQHVICVTPKLVEEHLKSAQYKKPPITVDSVCLKWAPPKHKQVKLSKK
Turning to B2, the binding result in assay [6] is “binds”.

The values above are taken from PMC11923996.
